Results published in the supplement of paper PMC10849652.
The other results are listed elsewhere or left out. Residues, ends and D or L forms follow the SMILES beside them. *: point of attachment. Cbz = O=C(OCc1ccccc1)*

By UniProt entry, the sequences of proteins in these tests, tags left out. Where a name states a change or a piece, a line headed by the entry shows the natural chain unless it says otherwise.
UniProt Q8WWC4: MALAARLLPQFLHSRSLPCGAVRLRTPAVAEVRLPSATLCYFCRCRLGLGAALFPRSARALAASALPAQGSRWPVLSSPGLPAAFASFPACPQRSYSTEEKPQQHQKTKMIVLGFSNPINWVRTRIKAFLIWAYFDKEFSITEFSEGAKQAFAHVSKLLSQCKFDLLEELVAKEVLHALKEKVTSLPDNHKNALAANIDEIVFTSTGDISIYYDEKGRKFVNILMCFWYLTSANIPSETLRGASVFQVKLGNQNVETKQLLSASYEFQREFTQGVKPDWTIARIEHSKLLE
UniProt Q9ULX9: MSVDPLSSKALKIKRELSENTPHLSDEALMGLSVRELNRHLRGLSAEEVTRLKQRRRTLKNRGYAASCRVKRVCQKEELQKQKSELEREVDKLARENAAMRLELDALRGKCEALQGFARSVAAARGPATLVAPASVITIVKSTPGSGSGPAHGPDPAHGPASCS
UniProt P46734: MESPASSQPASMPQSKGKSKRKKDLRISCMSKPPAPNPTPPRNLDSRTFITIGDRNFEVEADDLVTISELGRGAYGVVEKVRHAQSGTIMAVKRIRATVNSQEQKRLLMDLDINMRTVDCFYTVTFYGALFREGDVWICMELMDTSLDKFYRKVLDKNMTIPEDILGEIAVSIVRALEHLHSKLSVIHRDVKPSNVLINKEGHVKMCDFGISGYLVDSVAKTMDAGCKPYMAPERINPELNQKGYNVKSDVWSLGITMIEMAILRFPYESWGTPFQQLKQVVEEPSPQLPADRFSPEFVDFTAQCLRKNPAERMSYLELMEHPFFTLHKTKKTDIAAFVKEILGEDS
UniProt Q16659, whole entry, looked up: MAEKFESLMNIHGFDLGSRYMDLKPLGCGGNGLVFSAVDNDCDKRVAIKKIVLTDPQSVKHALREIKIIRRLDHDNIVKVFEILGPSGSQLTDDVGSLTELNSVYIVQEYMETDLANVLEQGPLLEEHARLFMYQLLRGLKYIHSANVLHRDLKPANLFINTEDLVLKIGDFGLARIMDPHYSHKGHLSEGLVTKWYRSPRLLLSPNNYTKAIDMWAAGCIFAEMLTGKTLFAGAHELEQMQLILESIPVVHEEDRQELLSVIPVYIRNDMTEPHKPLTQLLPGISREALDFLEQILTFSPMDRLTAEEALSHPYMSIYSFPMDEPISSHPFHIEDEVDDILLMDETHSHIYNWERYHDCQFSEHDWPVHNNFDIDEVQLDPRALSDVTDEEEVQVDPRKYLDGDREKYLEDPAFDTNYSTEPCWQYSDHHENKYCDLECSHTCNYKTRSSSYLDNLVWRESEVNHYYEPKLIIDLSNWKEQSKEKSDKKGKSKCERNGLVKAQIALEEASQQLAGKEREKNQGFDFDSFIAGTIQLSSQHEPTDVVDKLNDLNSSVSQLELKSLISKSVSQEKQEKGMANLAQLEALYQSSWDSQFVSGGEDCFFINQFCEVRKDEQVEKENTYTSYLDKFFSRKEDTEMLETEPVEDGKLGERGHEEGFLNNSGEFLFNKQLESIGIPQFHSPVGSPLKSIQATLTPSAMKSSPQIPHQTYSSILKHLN
UniProt Q6NSJ5: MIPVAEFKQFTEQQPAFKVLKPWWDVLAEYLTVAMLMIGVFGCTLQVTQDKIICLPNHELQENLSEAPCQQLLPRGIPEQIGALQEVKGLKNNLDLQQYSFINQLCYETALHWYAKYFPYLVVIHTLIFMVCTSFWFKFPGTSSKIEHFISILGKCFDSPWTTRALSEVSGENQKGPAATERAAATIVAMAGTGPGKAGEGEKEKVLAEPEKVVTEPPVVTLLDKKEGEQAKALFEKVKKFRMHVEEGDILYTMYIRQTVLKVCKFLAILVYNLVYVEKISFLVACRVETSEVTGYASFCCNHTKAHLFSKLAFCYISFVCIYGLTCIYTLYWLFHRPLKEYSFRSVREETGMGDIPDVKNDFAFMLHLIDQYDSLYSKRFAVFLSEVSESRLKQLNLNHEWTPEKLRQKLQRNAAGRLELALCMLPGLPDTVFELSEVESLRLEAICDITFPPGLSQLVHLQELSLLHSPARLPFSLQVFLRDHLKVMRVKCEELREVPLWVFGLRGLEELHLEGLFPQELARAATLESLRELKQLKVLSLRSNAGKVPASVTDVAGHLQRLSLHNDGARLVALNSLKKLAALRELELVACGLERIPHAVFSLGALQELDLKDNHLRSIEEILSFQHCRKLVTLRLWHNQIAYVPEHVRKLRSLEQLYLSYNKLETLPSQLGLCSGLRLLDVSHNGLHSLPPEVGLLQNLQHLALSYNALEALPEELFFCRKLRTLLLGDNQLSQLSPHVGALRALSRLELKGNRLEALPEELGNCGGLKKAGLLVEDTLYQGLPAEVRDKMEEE
UniProt P43361: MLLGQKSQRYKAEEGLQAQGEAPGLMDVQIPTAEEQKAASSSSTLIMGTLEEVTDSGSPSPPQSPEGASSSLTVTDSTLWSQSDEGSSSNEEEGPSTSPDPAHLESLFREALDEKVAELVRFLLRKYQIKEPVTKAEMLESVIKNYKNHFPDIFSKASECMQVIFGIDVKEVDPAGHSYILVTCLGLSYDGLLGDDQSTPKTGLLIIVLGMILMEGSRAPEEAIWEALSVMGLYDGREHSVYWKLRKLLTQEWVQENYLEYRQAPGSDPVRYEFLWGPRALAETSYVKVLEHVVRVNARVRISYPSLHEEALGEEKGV
UniProt P36941: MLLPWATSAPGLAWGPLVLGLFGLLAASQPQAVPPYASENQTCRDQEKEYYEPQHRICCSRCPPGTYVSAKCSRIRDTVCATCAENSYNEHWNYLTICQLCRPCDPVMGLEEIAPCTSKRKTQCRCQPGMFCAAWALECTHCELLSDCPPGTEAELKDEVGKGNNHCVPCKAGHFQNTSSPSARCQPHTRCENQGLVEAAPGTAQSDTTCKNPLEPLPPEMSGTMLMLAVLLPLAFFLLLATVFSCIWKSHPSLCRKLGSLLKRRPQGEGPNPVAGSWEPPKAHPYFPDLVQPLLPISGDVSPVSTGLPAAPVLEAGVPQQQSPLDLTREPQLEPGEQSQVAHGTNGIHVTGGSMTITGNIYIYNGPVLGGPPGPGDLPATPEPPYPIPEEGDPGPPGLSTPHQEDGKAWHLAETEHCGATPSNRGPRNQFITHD
UniProt O43325: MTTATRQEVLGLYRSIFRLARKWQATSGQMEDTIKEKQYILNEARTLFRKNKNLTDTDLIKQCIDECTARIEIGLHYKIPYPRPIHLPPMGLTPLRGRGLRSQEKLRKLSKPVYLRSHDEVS
UniProt Q16644, whole entry, looked up: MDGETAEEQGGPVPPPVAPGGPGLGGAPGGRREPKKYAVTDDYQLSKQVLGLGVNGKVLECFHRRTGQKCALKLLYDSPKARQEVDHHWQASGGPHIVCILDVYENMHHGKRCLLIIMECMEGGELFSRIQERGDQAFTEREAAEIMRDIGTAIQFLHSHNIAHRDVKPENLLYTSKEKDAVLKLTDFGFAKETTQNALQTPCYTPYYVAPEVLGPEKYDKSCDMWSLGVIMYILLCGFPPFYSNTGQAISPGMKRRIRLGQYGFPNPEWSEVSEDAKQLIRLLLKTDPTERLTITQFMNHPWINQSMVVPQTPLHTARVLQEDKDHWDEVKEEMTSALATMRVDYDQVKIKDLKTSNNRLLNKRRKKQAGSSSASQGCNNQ
UniProt Q8WVR3: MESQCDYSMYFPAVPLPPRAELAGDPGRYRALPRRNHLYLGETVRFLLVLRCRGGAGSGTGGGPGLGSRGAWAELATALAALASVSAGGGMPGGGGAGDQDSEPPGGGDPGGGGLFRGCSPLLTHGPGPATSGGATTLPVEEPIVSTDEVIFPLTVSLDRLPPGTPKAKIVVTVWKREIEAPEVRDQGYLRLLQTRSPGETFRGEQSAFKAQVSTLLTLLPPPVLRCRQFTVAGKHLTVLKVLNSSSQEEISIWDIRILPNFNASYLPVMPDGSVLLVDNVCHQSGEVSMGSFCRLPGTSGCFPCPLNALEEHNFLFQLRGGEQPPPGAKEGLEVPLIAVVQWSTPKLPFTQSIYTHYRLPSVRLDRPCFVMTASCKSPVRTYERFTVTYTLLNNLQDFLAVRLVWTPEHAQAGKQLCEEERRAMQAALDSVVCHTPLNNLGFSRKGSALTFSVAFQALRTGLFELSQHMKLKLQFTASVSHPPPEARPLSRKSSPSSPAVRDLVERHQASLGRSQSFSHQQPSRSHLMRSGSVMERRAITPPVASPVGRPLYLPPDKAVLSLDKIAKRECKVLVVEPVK
UniProt O43318: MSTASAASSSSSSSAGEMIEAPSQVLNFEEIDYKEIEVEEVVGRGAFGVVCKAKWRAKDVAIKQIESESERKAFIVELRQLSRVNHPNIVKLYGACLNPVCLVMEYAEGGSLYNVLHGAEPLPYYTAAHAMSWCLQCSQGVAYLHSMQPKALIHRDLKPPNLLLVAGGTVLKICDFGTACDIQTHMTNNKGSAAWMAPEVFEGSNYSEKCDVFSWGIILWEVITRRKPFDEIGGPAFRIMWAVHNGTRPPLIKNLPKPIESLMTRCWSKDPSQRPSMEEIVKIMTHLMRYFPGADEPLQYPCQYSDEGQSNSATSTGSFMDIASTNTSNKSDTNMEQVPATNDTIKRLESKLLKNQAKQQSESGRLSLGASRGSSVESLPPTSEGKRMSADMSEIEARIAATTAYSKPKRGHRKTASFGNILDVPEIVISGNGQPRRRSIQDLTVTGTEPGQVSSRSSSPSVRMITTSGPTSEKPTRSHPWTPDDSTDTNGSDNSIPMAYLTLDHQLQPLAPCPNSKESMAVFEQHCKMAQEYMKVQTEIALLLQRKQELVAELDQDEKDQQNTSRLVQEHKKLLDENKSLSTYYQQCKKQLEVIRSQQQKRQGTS
UniProt Q8IVH8: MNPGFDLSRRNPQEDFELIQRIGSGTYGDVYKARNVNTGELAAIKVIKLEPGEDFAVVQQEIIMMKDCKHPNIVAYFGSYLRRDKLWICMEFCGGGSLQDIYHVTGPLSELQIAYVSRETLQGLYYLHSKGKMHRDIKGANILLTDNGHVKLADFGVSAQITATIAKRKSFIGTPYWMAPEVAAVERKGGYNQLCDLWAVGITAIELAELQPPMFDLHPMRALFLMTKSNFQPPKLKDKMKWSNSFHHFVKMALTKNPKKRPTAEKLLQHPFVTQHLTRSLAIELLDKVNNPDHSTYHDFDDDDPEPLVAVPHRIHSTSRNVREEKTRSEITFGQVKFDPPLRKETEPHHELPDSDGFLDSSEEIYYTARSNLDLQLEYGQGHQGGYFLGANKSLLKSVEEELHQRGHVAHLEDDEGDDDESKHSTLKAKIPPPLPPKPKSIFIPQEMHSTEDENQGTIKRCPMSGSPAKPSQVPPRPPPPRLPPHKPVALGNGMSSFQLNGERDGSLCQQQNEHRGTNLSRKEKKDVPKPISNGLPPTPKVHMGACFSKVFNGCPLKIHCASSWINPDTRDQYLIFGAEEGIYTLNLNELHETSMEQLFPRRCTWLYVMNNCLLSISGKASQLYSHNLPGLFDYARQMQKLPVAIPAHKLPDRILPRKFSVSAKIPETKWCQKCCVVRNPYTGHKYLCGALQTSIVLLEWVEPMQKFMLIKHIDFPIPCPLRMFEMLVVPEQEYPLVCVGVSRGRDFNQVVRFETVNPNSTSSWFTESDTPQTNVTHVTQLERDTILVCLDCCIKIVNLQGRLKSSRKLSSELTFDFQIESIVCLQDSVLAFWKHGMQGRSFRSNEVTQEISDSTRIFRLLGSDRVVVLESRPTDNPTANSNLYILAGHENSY
UniProt P43355: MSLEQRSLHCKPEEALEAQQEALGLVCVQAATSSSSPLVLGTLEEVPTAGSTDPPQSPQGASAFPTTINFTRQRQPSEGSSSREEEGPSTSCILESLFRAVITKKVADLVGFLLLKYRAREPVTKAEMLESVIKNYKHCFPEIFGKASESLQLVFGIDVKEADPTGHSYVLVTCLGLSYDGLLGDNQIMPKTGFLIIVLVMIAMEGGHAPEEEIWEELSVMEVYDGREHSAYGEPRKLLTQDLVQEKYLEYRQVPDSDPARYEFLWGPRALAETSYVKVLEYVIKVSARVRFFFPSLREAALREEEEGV
UniProt P07948: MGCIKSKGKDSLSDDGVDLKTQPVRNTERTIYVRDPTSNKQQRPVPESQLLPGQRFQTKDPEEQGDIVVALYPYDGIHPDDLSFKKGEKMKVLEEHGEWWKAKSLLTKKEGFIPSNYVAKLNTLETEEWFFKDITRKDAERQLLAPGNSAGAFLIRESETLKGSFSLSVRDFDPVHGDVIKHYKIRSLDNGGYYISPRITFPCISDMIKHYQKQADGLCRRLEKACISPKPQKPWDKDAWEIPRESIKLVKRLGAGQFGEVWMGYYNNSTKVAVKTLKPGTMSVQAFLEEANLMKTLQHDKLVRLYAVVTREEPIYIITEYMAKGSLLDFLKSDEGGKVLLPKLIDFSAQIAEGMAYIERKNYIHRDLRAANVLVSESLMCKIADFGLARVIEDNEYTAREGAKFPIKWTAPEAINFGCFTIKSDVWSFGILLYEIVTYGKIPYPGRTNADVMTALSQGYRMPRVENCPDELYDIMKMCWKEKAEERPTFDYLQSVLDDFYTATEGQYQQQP

Key:
Test in all cases: log2 fold change, soluble protein after heating vs DMSO (PISA); higher = thermal stabilisation; K562 cells, 10 uM, 30 min; active = over 0.2 and 3.5 SD of the protein, either way, in both replicates (recomputed)
[1] = compound: C1COCCN1CCN2C3=CC=CC=C3N=C2NC(=O)C4=CC(=CC=C4)[N+](=O)[O-] [IRAK-1-4 Inhibitor I]
In short: (§1)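 K562 cells (2×10^6 cells/mL) were treated with 10 μM compound for 30 min, and aliquots were heated for 3 min over 48°C-58°C. Pooled aliquots were extracted in PBS with 0.5% NP-40 at 4°C, and the supernatant after 21,000xg for 90 min was measured by TMTpro 16plex LC-MS/MS with channel sums equalised. Reported thermal stability, relative to control samples and from duplicates, is a log2 fold change.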

[2] = compound: C=CC(=O)N1CCC[C@@H](n2nc(-c3ccc(Oc4ccccc4)cc3)c3c(N)ncnc32)C1 [ibrutinib]
In short: as §1

[3] = compound: CC(=O)c1cnc2ccc(-c3cc(Cl)c(O)c(Cl)c3)nc2c1N[C@H]1CC[C@H](CN(C)C)CC1
In short: as §1

[4] = compound: CC(C)(C)Cn1c(N)nc2ccc(-c3[nH]c(C(C)(C)C)nc3-c3ccc(F)cc3)nc21 [ralimetinib]
In short: as §1

[5] = compound: CC(C)(O)CC(=O)NCCn1ccc2ncnc(Nc3ccc(Oc4cccc(C(F)(F)F)c4)c(Cl)c3)c21
In short: as §1

[6] = compound: CC(C)C1=C2N=C(C=C(N2N=C1)NCC3=CC=CC=C3)NCCCCCCN
In short: as §1

[7] = compound: CC(C)C[C@@H](C=O)NC(=O)[C@H](CC(C)C)NC(=O)[C@H](CC(C)C)NC(=O)OCc1ccccc1
In short: as §1

[8] = compound: CC(C)N(C[C@H]1O[C@@H](n2cnc3c(N)ncnc32)[C@H](O)[C@@H]1O)[C@H]1C[C@@H](CCc2nc3cc(C(C)(C)C)ccc3[nH]2)C1 [pinometostat]
In short: as §1

[9] = compound: CC1=C(C2=C(C=C1)C(=O)C3=CC=CC=C3N2CCCN)C
In short: as §1

[10] = compound: CC1=C(C=C(C=C1)NC(=O)C2=CC(=CC=C2)C(C)(C)C#N)NC3=CC4=C(C=C3)N=CN(C4=O)C
In short: as §1

[11] = compound: CC1=C(C=C(C=C1)NC(=O)C2=CC(=CC=C2)N(C)C)NC(=O)C3=CC=C(C=C3)O
In short: as §1

[12] = compound: CC1=CC=C(C=C1)SC2=C3C=C(SC3=CN=C2)C(=O)N
In short: as §1

[13] = compound: CC1=NC(=CC=C1)C2=C(N=C(N2)C(C)(C)C)C3=CC4=NC=CN=C4C=C3
In short: as §1

[14] = compound: CCCCN(Cc1ccc(C(=O)NO)cc1)C(=O)Nc1ccccc1 [Nexturastat A]
In short: as §1

[15] = compound: CCCS(=O)(=O)Nc1ccc(F)c(C(=O)c2c[nH]c3ncc(-c4ccc(Cl)cc4)cc23)c1F [vemurafenib]
In short: as §1

[16] = compound: CCCS(=O)(=O)Nc1ccc(F)c(C(=O)c2c[nH]c3ncc(Cl)cc23)c1F
In short: as §1

[17] = compound: CCCc1cc(C)[nH]c(=O)c1CNC(=O)c1cc(-c2ccnc(N3CCN(C)CC3)c2)cc2c1cnn2C(C)C
In short: as §1

[18] = compound: CCN(CC)Cc1ccc2cc(COC(=O)Nc3ccc(C(=O)NO)cc3)ccc2c1 [givinostat]
In short: as §1

[19] = compound: CCN(CCCOc1ccc2c(Nc3cc(CC(=O)Nc4cccc(F)c4)[nH]n3)ncnc2c1)CCOP(=O)(O)O [barasertib]
In short: as §1

[20] = compound: CC1=C(C(CC(=O)N1)C2=CC=C(C=C2)C(F)(F)F)C(=O)NC3=C(C=C4C(=C3)C=NN4)F
In short: as §1

Target | log2 fold change [1] | log2 fold change [2] | log2 fold change [3] | log2 fold change [4] | log2 fold change [5] | log2 fold change [6] | log2 fold change [7] | log2 fold change [8] | log2 fold change [9] | log2 fold change [10] | log2 fold change [11] | log2 fold change [12] | log2 fold change [13] | log2 fold change [14] | log2 fold change [15] | log2 fold change [16] | log2 fold change [17] | log2 fold change [18] | log2 fold change [19] | log2 fold change [20]
MAIP1 (UniProt Q8WWC4) | inactive: 0 | inactive: -0.014 | inactive: -0.004 | inactive: -0.028 | inactive: 0.09 | inactive: -0.201 | inactive: -0.026 | inactive: -0.042 | inactive: 0.052 | inactive: -0.022 | inactive: -0.005 | inactive: 0.083 | inactive: 0.088 | inactive: -0.033 | inactive: 0.034 | inactive: 0.057 | inactive: -0.034 | inactive: 0.001 | inactive: -0.002 | 
MAFF (UniProt Q9ULX9) | inactive: 0.043 | inactive: 0.05 | inactive: 0.106 | inactive: 0.035 |  |  | inactive: 0.156 | inactive: 0.21 |  | inactive: 0.058 | inactive: -0.039 |  | inactive: -0.155 |  | inactive: -0.032 |  | inactive: -0.061 |  | inactive: -0.009 | inactive: 0.056
MAP2K3 isoform 3 (UniProt P46734) | inactive: 0.012 | inactive: 0.032 | active: -0.457 | inactive: 0.02 | inactive: 0.059 | inactive: -0.035 | inactive: -0.022 | inactive: -0.012 | inactive: -0.032 | inactive: -0.071 | inactive: -0.074 | inactive: -0.051 | inactive: -0.08 | inactive: 0.103 | inactive: -0.031 | inactive: -0.008 | inactive: 0.021 | inactive: 0.002 | inactive: 0.042 | 
MAPK6 (UniProt Q16659) | inactive: 0.097 | inactive: 0.152 | inactive: -0.12 |  | inactive: 0.076 | inactive: 0.062 |  | inactive: -0.001 | inactive: 0.006 | inactive: -0.041 |  | inactive: 0.011 | inactive: 0.006 | inactive: 0.037 | inactive: 0.022 | inactive: 0.09 | inactive: -0.009 | inactive: -0.003 | inactive: -0.061 | inactive: -0.1
LRRC8E (UniProt Q6NSJ5) | inactive: 0.036 | inactive: -0.058 |  | inactive: 0.126 | inactive: 0.031 | inactive: 0.154 | inactive: -0.033 | inactive: 0.054 | inactive: 0.128 | inactive: 0.085 | inactive: -0.011 | inactive: -0.043 | inactive: -0.064 | inactive: 0.106 | inactive: -0.065 | inactive: -0.09 | inactive: -0.008 | inactive: -0.151 | inactive: -0.047 | 
MAGEA8 (UniProt P43361) | inactive: 0.014 | inactive: -0.086 | inactive: 0.128 | inactive: -0.02 |  | inactive: -0.146 | inactive: 0.068 | inactive: 0.024 | inactive: -0.265 |  | inactive: 0.009 | inactive: 0.02 | inactive: 0.072 |  | inactive: 0.031 | inactive: 0.197 |  | inactive: 0.034 | inactive: -0.123 | 
MARK2 (UniProt E9PC69) | inactive: -0.156 | inactive: -0.047 | active: -2.09 | inactive: 0.031 | inactive: -0.047 | inactive: -0.581 | inactive: 0.049 | inactive: 0.078 | inactive: 0.034 | inactive: -0.011 | inactive: -0.018 | inactive: 0.094 | inactive: 0.06 | inactive: 0.025 | inactive: -0.005 | inactive: -0.034 |  | inactive: 0.132 | inactive: 0.034 | 
MAPK14 (UniProt Q16539) | inactive: -0.048 | inactive: 0.016 | active: 0.793 | active: 1.52 |  | inactive: -0.178 | inactive: -0.135 | inactive: -0.09 | inactive: 0.062 | active: 1.62 | inactive: 0.615 | inactive: 0.111 | inactive: 0.022 |  | inactive: 0.059 | inactive: 0.339 | inactive: 0.002 | inactive: 0.03 | inactive: -0.029 | 
LTBR (UniProt P36941) | inactive: -0.052 | inactive: -0.016 | inactive: -0.038 | inactive: 0.016 | inactive: 0.168 | inactive: 0.177 | inactive: 0.124 | inactive: -0.059 | inactive: -0.159 | inactive: -0.012 | inactive: 0.124 | inactive: -0.003 | inactive: 0.059 | inactive: -0.089 | inactive: 0.023 | inactive: -0.049 |  | inactive: 0 | inactive: 0.043 | 
LYRM1 (UniProt O43325) | inactive: 0.014 | inactive: -0.027 |  | inactive: -0.041 | inactive: -0.01 | inactive: -0.001 | inactive: -0.03 | inactive: 0.013 | inactive: -0.048 | inactive: -0.046 | inactive: 0.007 | inactive: -0.068 | inactive: -0.026 | inactive: -0.071 | inactive: -0.04 | inactive: -0.028 | inactive: -0.043 | inactive: 0 | inactive: 0.063 | inactive: -0.033
MAPKAPK3 (UniProt Q16644) | inactive: 0.031 | inactive: 0.006 | active: 0.332 | active: 0.413 | inactive: -0.103 | inactive: -0.121 | inactive: -0.151 | inactive: -0.039 | inactive: 0.045 | inactive: 0.24 | inactive: 0.097 | inactive: -0.025 | inactive: 0.069 | inactive: -0.134 | inactive: 0.033 | inactive: 0.063 | inactive: -0.012 | inactive: 0.015 | inactive: 0.039 | 
MAP11 (UniProt Q8WVR3) | inactive: 0.042 | inactive: -0.004 |  |  | inactive: -0.013 | inactive: -0.239 |  | inactive: 0.116 |  | inactive: -0.142 |  |  | inactive: -0.121 | inactive: 0.026 | inactive: -0.048 |  | inactive: 0.046 | inactive: -0.105 | inactive: -0.016 | inactive: 0.18
MAP3K7 (UniProt O43318) | inactive: -0.123 | inactive: -0.061 | inactive: -0.075 | inactive: 0.035 | inactive: -0.207 | inactive: -0.159 | inactive: 0.05 | inactive: 0.102 | inactive: 0.006 | inactive: -0.008 | inactive: -0.039 | inactive: 0.041 | inactive: 0.019 | inactive: 0.027 | inactive: 0.042 | inactive: 0.074 | inactive: 0.008 | inactive: 0.093 | inactive: 0.079 | 
MAP4K3 (UniProt Q8IVH8) | inactive: -0.016 | inactive: -0.34 |  |  |  | inactive: -0.081 |  | inactive: 0.03 |  | inactive: 0.091 |  |  | inactive: 0.015 |  | inactive: -0.193 |  |  | inactive: 0.069 | inactive: -0.049 | 
MAGEA1 (UniProt P43355) | inactive: -0.081 | inactive: 0.06 |  | inactive: 0.058 | inactive: 0.053 | inactive: -0.396 | inactive: 0.127 | inactive: 0.261 |  |  | inactive: -0.057 | inactive: 0.015 | inactive: 0.001 | inactive: 0.391 |  | inactive: 0.056 | inactive: 0.04 | inactive: 0.065 | inactive: 0.054 | inactive: -0.03
LYN (UniProt P07948) | inactive: -0.016 | active: 0.4 | active: -0.456 | inactive: 0.045 | inactive: 0.018 | inactive: -0.03 | inactive: 0.24 | inactive: 0.065 | inactive: 0.078 | inactive: 0.195 | inactive: -0.053 | inactive: -0.036 | inactive: 0.037 | inactive: 0.293 | inactive: -0.016 | inactive: -0.143 | inactive: -0.22 | inactive: 0.211 | inactive: -0.057 | 

For reference, some entries already given:
Target | log2 fold change [1] | log2 fold change [2] | log2 fold change [3] | log2 fold change [4] | log2 fold change [5] | log2 fold change [6] | log2 fold change [7] | log2 fold change [8] | log2 fold change [9] | log2 fold change [10] | log2 fold change [11] | log2 fold change [12] | log2 fold change [13] | log2 fold change [14] | log2 fold change [15] | log2 fold change [16] | log2 fold change [17] | log2 fold change [18] | log2 fold change [19] | log2 fold change [20]
MAPKAPK3 (UniProt Q16644) | inactive: 0.031 | inactive: 0.006 | active: 0.332 | active: 0.413 | inactive: -0.103 | inactive: -0.121 | inactive: -0.151 | inactive: -0.039 | inactive: 0.045 | inactive: 0.24 | inactive: 0.097 | inactive: -0.025 | inactive: 0.069 | inactive: -0.134 | inactive: 0.033 | inactive: 0.063 | inactive: -0.012 | inactive: 0.015 | inactive: 0.039 | 
MAP11 (UniProt Q8WVR3) | inactive: 0.042 | inactive: -0.004 |  |  | inactive: -0.013 | inactive: -0.239 |  | inactive: 0.116 |  | inactive: -0.142 |  |  | inactive: -0.121 | inactive: 0.026 | inactive: -0.048 |  | inactive: 0.046 | inactive: -0.105 | inactive: -0.016 | inactive: 0.18
